Measurements: PubChem BioAssay AID504834 (National Center for Advancing Translational Sciences (NCATS), 2011)
In all, about 320,000 compounds went through this assay and about 22,000 (6.9%) were called active. This list was built around the results that the source calls inconclusive (neither active nor inactive); the mix of calls is not that of the screen. The call rests on the fitted dose curve; in most records, active means well fitted inhibition curve with a large enough effect; inconclusive means small, poorly fitted or top-dose-only effect, or another doubt; inactive means no such curve, though single readings can be large or run the other way. Where the call is inconclusive, the potency comes from a doubtful curve fit.
On the % scale 0 is the no-effect control and ±100 the full control effect; potency means the concentration at half of the fitted maximal effect.

Test: Primary qHTS for delayed death inhibitors of the malarial parasite plastid, 96 hour incubation
Conditions: P. falciparum luciferase reporter growth; series mostly up to 28.7 µM; activity change, negative = inhibition: at the top concentration
Method in brief: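 Two parasite generations (96 h, 37 C, 5% CO2) of compound exposure in infected erythrocytes (0.05% parasitemia, 2% hematocrit). Luciferase-reporter P. falciparum; decreased luminescence indicates inhibited growth, aimed at apicoplast-acting delayed death.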
With `CCc1nnc(NC(=O)CN2C(=O)NC3(CC(C)CC(C)(C)C3)C2=O)s1` (stereo not given) the Potency was inconclusive: 18.5 µM [inhibitor, single point]. For `O=C(C(=O)N1CCc2ccccc2C1)c1cn(CC(=O)N2CCOCC2)c2ccccc12`, the Potency was inconclusive: 18.5 µM [inhibitor, single point]. In the case of `CCOC(=O)c1cccc(NC(=O)C2CCCN2S(=O)(=O)c2cccc3cccnc23)c1` (stereo not given), the Potency is reported as inconclusive: 14.7 µM [inhibitor, partial curve, poor fit]. With `COc1ccc(-c2sc(Nc3ccccc3)n[n+]2-c2ccc(F)cc2)c(OC)c1OC` the Potency was inconclusive: 18.5 µM [inhibitor, single point]. With `Cc1ccc(N2CC(C(=O)Nc3c4c(nn3C(C)(C)C)CS(=O)(=O)C4)CC2=O)cc1C` (stereo not given) the Potency was inconclusive: 11.7 µM [inhibitor, single point]. For `Cn1cc(CN(CCCN2CCOCC2)C(=S)Nc2cccc(Cl)c2)c2ccccc21`, the Potency was inconclusive: 11.7 µM [inhibitor, single point]. In the case of `CCC(C(=O)Nc1cccc(S(=O)(=O)N(C)c2ccccc2)c1)c1ccccc1` (stereo not given), the Potency is reported as inconclusive: 18.5 µM [inhibitor, single point]. For `CCOc1ccc(CCNC(=O)CSCC(=O)Nc2cccc(C)c2)cc1OCC`, the “activity change, negative = inhibition” value was inactive: -24.9%. With `COc1ccc(C(=O)N(C)C2CCCCC2)cc1S(=O)(=O)N1CCOCC1` the Potency was inconclusive: 11.7 µM [inhibitor, partial curve, poor fit]. For `Cc1cc(OCC(=O)NC2CCN(Cc3ccccc3)CC2)c2c(C)cc(=O)oc2c1`, the Potency was inconclusive: 18.5 µM [inhibitor, single point]. With `CCOC(=O)C1CCCN(S(=O)(=O)c2c(C)noc2C)C1` (stereo not given) the “activity change, negative = inhibition” value was inactive: 6.63%. With `CCc1ccccc1NC(=O)CNC(=O)c1cc(C2CC2)nn1-c1ccccc1` the Potency was inconclusive: 11.7 µM [inhibitor, single point]. For `Cc1ccc(S(=O)(=O)N2CCN(C(=O)CCOc3ccccc3C)CC2)cc1C`, the Potency was inconclusive: 10.4 µM [inhibitor, single point]. With `Cc1ccc(C(=O)c2cc3ccccc3o2)cc1[N+](=O)[O-]` the Potency was inconclusive: 18.5 µM [inhibitor, single point]. In the case of `COc1ccccc1NC(=O)CCN1C(=O)c2ccccc2C1=O`, the “activity change, negative = inhibition” value is reported as inactive: 173%. For `CCN1CCN(c2ccc(S(=O)(=O)N3CCCCC3)cc2NC(=O)c2cccc(C)c2)CC1`, the Potency was inconclusive: 5.22 µM [inhibitor, partial curve]. With `CC(=O)NN1C(=O)c2ccc3c4c(ccc(c24)C1=O)C(=O)N(NC(C)=O)C3=O` the Potency was inconclusive: 3.29 µM [inhibitor, partial curve, poor fit]. With `CSCCOC(=O)C1=C(C)Nc2ccc(C)cc2S1` the Potency was inconclusive: 14.7 µM [inhibitor, single point]. For `CCc1c(C(C)O)oc2ccc3c(C)cc(=O)oc3c12` (stereo not given), the “activity change, negative = inhibition” value was inactive: -12.9%. With `Cc1ccc(S(=O)(=O)/N=C(/Nc2ccc(F)cc2F)c2ccccc2)cc1` the Potency was inconclusive: 11.7 µM [inhibitor, partial curve, poor fit]. In the case of `COc1ccc(C)cc1NC(=O)C(C)N1CCOCC1` (stereo not given), the “activity change, negative = inhibition” value is reported as inactive: 6.37%. With `O=[N+]([O-])c1ccc(CN2CC=C(c3ccccc3)CC2)cc1` the Potency was inconclusive: 18.5 µM [inhibitor, single point]. In the case of `Nn1c(CSc2nc3ccccc3o2)nnc1CSc1nc2ccccc2o1`, the Potency is reported as inconclusive: 0.329 µM [inhibitor, partial curve, poor fit]. With `CSc1ccccc1C(=O)N(C)C(c1ccccc1)c1ccccc1` the Potency was active: 10.4 µM. With `Cc1cc(F)ccc1Oc1cc(NN2CCCCC2)c([N+](=O)[O-])cc1[N+](=O)[O-]` the Potency was inconclusive: 9.28 µM [inhibitor, single point]. With `CC(C)(C)C(=O)NC(c1ccccc1)c1c(O)ccc2ccccc12` (stereo not given) the Potency was inconclusive: 1.65 µM [inhibitor, partial curve]. With `CCCC(NCC(=O)Nc1ccccc1C(=O)NC1CC1)c1ccccc1` (stereo not given) the Potency was inconclusive: 18.5 µM [inhibitor, single point]. In the case of `COC(=O)Nc1nnc(CCc2ccccc2)s1`, the Potency is reported as inconclusive: 18.5 µM [inhibitor, single point]. In the case of `CCOC(=O)c1nnn(CC(=O)N2N=C(c3cccc4ccccc34)CC2c2ccccc2)c1C(=O)OCC` (stereo not given), the Potency is reported as inconclusive: 13.1 µM [inhibitor, single point]. For `Cc1cc(C)c(C(=O)N(CCN(C)C)CC2CCCN(Cc3ccccc3F)C2)o1` (stereo not given), the Potency was inconclusive: 16.5 µM [inhibitor, partial curve, poor fit]. In the case of `COc1ccc(-c2cc(C(F)(F)F)nc(N3CCN(C)CC3)n2)cc1`, the “activity change, negative = inhibition” value is reported as inactive: 35.6%. With `Cc1ccc(NS(=O)(=O)c2c(C(=O)N3CCCCCC3)c(C)n(C)c2C)c(Cl)c1` the Potency was inconclusive: 18.5 µM [inhibitor, single point]. For `CN1C(=O)C(=Cc2ccccc2OCc2ccc(Cl)cc2)C(=O)N(C)C1=O`, the Potency was active: 1.04 µM. In the case of `Cc1ccc(S(=O)(=O)NC2CCCc3ccccc32)cc1C` (stereo not given), the “activity change, negative = inhibition” value is reported as inactive: 28.4%. For `O=C(Nc1ccc2nsnc2c1)c1ccc2c(c1)OCO2`, the Potency was inconclusive: 9.28 µM [inhibitor, partial curve, poor fit]. In the case of `CC(=O)N1CCCc2cc(S(=O)(=O)N3CCCC(C(=O)Nc4ccc(C)cc4C)C3)ccc21` (stereo not given), the Potency is reported as inconclusive: 10.4 µM [inhibitor, single point]. In the case of `O=C(O)CCSc1ccccn1`, the Potency is reported as inconclusive: 11.7 µM [inhibitor, single point]. In the case of `O=C(COC(=O)C12CC3CC(CC(C3)C1)C2)Nc1ccc([N+](=O)[O-])cc1Cl`, the Potency is reported as inconclusive: 18.5 µM [inhibitor, single point]. For `COc1ccc(OC)c2sc(N(CCN(C)C)C(=O)c3ccc4ccccc4c3)nc12`, the Potency was inconclusive: 9.28 µM [inhibitor, partial curve]. With `CS(=O)(=O)C1=NN2C(=N)/C(=C\c3ccc(OC(=O)c4ccco4)cc3)C(=O)N=C2S1` the Potency was inconclusive: 13.1 µM [inhibitor, partial curve, poor fit].
